# Screening data, single-dose tests

From ChEMBL document CHEMBL3988442, “University of Dundee, Small-Polar-MMV Screening Library” (2021).

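Growth of Mycobacterium tuberculosis over 4 days (cholesterol / DPPC medium with tyloxapol); the read-out is not stated. Tested at 500 µM. Direction is inferred from retests: higher values go with more growth inhibition. About 18,000 compounds were tested under these conditions; 5% (about 900) showed 50% or more at least once.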

Each number is a percent effect as filed.
How 0% and 100% were set is not recorded. Most values in the screen are low, and negative values occur.
This is an unselected part of the compounds tested.

Result for Cc1nn(C)cc1C(C)NC(=O)c1c(I)cnn1C (configuration not stated) was 10.36%. For O=C(c1ccc(CN2CCOCC2)cc1)N1CCCC1 the result was -2.482%. Result for COC(=O)NCC(=O)NC1CCCCNC1=O (configuration not stated) was 2.145%. For Cc1nnc(SCCCNC(=O)c2cnccc2C)s1 the result was -6.001%. Result for COC1CCN(C(=O)c2cccc(F)c2C)C1 (configuration not stated) was -20.73%. Result for NCC1(c2ccc(F)cc2)CCOCC1 was 6.701%. With Cc1nn(CCO)c(C)c1CNCCNS(C)(=O)=O the screen gave 13.1%.

Result for N#Cc1ccccc1C(=O)N1CCOC2(CCCC2)C1 was 19.47%. With CC1Cc2ccccc2N1C(=O)c1ccccn1 (configuration not stated) the screen gave 41.23%. Result for Cn1nccc1CCC(=O)NCC1CCCNC1 (configuration not stated) was 0.8993%. CC(=O)NCCCN1CCC(CNc2ccccn2)C1 (configuration not stated) gave 6.764%. COc1ccc(CNC(=O)CN(C)CC(C)(C)O)cc1 read 19.83%. N#Cc1cccc(C(=O)OCCCn2cccn2)c1 read 68.64%. Result for CCN1CC(C(=O)NCCCc2cnn(C)c2)CC1=O (configuration not stated) was -4.797%.

Result for CCn1ccc(C(=O)N(C)Cc2cccnc2OC)n1 was 63.03%. CCS(=O)(=O)Nc1cccc(C(C)=O)c1 read 30.05%. With CC(C)Cn1cncc1CN the screen gave -4.5%. O=S(=O)(CC1CCOCC1)NCCCO read 23.96%. Cc1cnn(-c2ccc(C(C)N)cc2F)c1 (configuration not stated) gave 29.47%. OC(CN1CCn2ccnc2C1)c1ccc(Cl)cc1 (configuration not stated) read 33.97%. For CSc1c(F)cc(NC(=O)NCCO)cc1F the result was 41.7%.

With Cc1nc(CN2CCCNCC2)cs1 the screen gave 3.435%. CN(C)C(=O)C1CCN(Cc2ccc(F)cc2)CC1 read 1.035%. Cc1cc(C(=O)NCCCN(C)C)c(C)o1 gave -9.594%. CCOC(=O)C(C)Nc1ccc(CC(=O)N(C)C)cc1 (configuration not stated) gave 4.219%. CNCc1csc(C)n1 gave 5.951%. CCC(NC(=O)Cn1nc(C)cc1N)[C@H]1C[C@H](O)C1 (some centres not stated) gave 11.98%. For CCOc1ccc(Cl)cc1CNCCNCCO the result was 20.1%.

Result for NC(=O)CN1CCCC1CCc1ccccc1 (configuration not stated) was 16.83%. COC(=O)CCN1CCN(c2cccc(OC)c2)CC1 read -13.63%. Result for NC1CCCN(S(=O)(=O)c2ccc(Br)cc2)C1 (configuration not stated) was 19.48%. CCN1CCCN(C(=O)c2ccc(F)cc2F)CC1 read 2.527%. For Cc1cccc(C(=O)NCc2cccc(O)c2)n1 the result was 56.25%. With CNC(=O)CN(c1ccc(Cl)cc1Cl)S(C)(=O)=O the screen gave -2.715%. Result for CS(=O)(=O)N1CCC(O)c2ccccc21 (configuration not stated) was 5.212%.

With Cn1cc(CC(CN)CO)cn1 (configuration not stated) the screen gave -7.234%. COc1ccsc1C(=O)Nc1nc(C)nn1C read 1.045%. With O=C(CCCc1cccs1)NC1(CCO)CCOCC1 the screen gave -0.3745%. CC(=O)NCCNc1c(C)c(C)nc2ccccc12 read -30.09%. CNC(C)c1ccco1 (configuration not stated) read 5.255%. N#CCC1(O)CN(C(=O)c2csc(I)c2)C1 gave 1.772%. With CCn1cc(Br)c(=O)c(NC(=O)c2cc(C)on2)c1 the screen gave -1.105%.

Repeated from the top, 5 entries:

| Compound | effect |
|---|---|
| `Cc1nn(C)cc1C(C)NC(=O)c1c(I)cnn1C` (configuration not stated) | 10.36 |
| `O=C(c1ccc(CN2CCOCC2)cc1)N1CCCC1` | -2.482 |
| `COC(=O)NCC(=O)NC1CCCCNC1=O` (configuration not stated) | 2.145 |
| `Cc1nnc(SCCCNC(=O)c2cnccc2C)s1` | -6.001 |
| `COC1CCN(C(=O)c2cccc(F)c2C)C1` (configuration not stated) | -20.73 |